{"source": "paper PMC11530851", "molecular_target": "SKIV2L of the human SKI (hSKI) complex, N-terminus MBP-tagged (human) (UniProt Q15477)", "assay": "co-purification (amylose affinity, Ni-NTA affinity, then size exclusion chromatography); three proteins co-expressed in Sf9; soluble extract on amylose resin (MBP-SKIV2L), maltose eluate on Ni-NTA (His-Flag-TTC37), tags cleaved with PreScission protease, Superose 6 Increase 10/300 GL; 50 mM Hepes-KOH pH 7.6, 150-250 mM NaCl washes; Coomassie SDS-PAGE", "note": "These are yes or no findings as the source states them, for the method shown. Some results given as binding are weak or reduced against the parent protein; the word gives no strength.", "data": [{"substance": "TTC37 of the human SKI (hSKI) complex, N-terminus His-Flag tagged (from UniProt Q6PGP7 1-1564)", "values": [{"measurement": "binding", "result": "binds"}]}]}
